In PubChem BioAssay (EPA / NIEHS):
Several values for one entry are separate records, joined by “and”; a condition that tells them apart may be missing. Equal values may be shown once. The inconclusive results got no clear call from the source; some entries with a clear call stand among them for comparison. Where the call is inconclusive, the potency comes from a doubtful curve fit. Activity calls are given as the source filed them. Rule for the calls: active = hit-call score of the fitted dose curve at least 0.9, where 1 is the maximum; inconclusive = response in the unintended direction; inactive = score below 0.9.

assay: VALA_MIGHUV2_CellCount: Viability Assessment in the VALA Sciences human Umbilical Vein Endothelial Cell Migration (MIGHUV) Assay, Area of Scratch Wound after Recovery (AID 2284314)
Protocol: VALA_MIGHUV2_BCatenin is a cell-based, multiplexed assay that uses umbilical vein-derived endothelial cells (HUVEC). Measurements were taken 24 hours after chemical dosing in a 96-well plate.VALA_MIGHUV2_CellCount is the one of two assay components measured from the VALA_MIGHUV2 assay. It is designed to make measurements of viability, a form of viability reporter, as detected with fluorescence intensity signals by HCS Fluorescent Imaging technology. Data from the assay component VALA_MIGHUV2_CellCount was analyzed at the endpoint, VALA_MIGHUV2_CellCount, in the positive analysis fitting direction relative to DMSO as the negative control and baseline of activity. Using a type of viability reporter, loss-of-signal activity can be used to understand viability. To generalize the intended target to other relatable targets, this assay endpoint is annotated to the cell cycle intended target family, where the subfamily is cell count.
Cells were seeded on 384-well microplates (day-0) at a density of 9000 cells per well for detection of wound area recovery or 4000 cells per well for detection of beta-catenin (CTNB) immunoreactivity and incubated in Endothelial Cell Growth Medium (CAI, San Diego; catalog 211-500). After 24 hours of culture, the HUVEC plates were scratched using a custom scratch head with the Bravo liquid handling system. This created a 'wound' area without cells in each well. Test chemical was added within 30 min, each tested in 3-replicates across a 6-point concentration response (0.1 % DMSO vehicle control). 'ScratchOnly' Plates were incubated for a 24 h 'wound recovery' period and then fixed with 4% paraformaldehyde. Hoechst dye was used to visualize cell nuclei in the wound area, and CTNB immunofluorescence for visualizing CTNB-positive nuclei (beta-Catenin (L54E2) Mouse mAb (IF Preferred) 2677; Cell Signaling Technology, Danvers, MA). Each HUVEC plate included neutral vehicle control (0.1 % DMSO) treated wells and Cytochalasin D (actin cytoskeletal disrupter) or BIO-acetoxime (synthetic GSK3 inhibitor) as positive reference controls for endothelial migration and nuclear translocation of CTNB, respectively.

SMILES | AC50 | outcome
Cc1ccc(N)cc1N | inconclusive: 50000 nM | 
O=[N+]([O-])c1cc(C(F)(F)F)c(Cl)c([N+](=O)[O-])c1Nc1ncc(C(F)(F)F)cc1Cl |  | inactive
CO[C@@H]1[C@H](OC(=O)NC(=O)CCl)CC[C@]2(CO2)[C@H]1[C@@]1(C)O[C@@H]1CC=C(C)C | inconclusive: 0.0826 nM and inconclusive: 9.98 nM | 
Clc1ccc(Cl)c(Cl)c1 | inconclusive: 1.29 nM | 
CC(C)(C)c1cc(O)ccc1O | active: 74300 nM | 
CC(C)(C)c1ccc(CSc2cnn(C(C)(C)C)c(=O)c2Cl)cc1 | inconclusive: 1.29 nM | 
Oc1cc(Cl)ccc1Oc1ccc(Cl)cc1Cl | inconclusive: 5.62 nM | 
N#Cc1nn(-c2c(Cl)cc(C(F)(F)F)cc2Cl)c(N)c1S(=O)C(F)(F)F (stereo unspecified) | inconclusive: 2.2 nM | 
Oc1ccc2ccc3cccc4ccc1c2c34 | inconclusive: 1.29 nM | 
ClCC(Cl)CCl |  | inactive
Oc1ccc(C(c2ccc(O)cc2)(C(F)(F)F)C(F)(F)F)cc1 | inconclusive: 3.01 nM | 

A second format for part of the listing above.
SMILES	AC50	outcome
CO[C@@H]1[C@H](OC(=O)NC(=O)CCl)CC[C@]2(CO2)[C@H]1[C@@]1(C)O[C@@H]1CC=C(C)C	inconclusive: 0.0826 nM and inconclusive: 9.98 nM	
CC(C)(C)c1cc(O)ccc1O	active: 74300 nM	
Oc1cc(Cl)ccc1Oc1ccc(Cl)cc1Cl	inconclusive: 5.62 nM	
